# Measurements taken from PubChem BioAssay AID504834 (National Center for Advancing Translational Sciences (NCATS), 2011).
# About 22,000 (6.9%) of roughly 320,000 compounds were called active. This list was built around the results that the source calls inconclusive (neither active nor inactive); the mix of calls is not that of the screen. The call rests on the fitted dose curve; in most records, active means well fitted inhibition curve with a large enough effect; inconclusive means small, poorly fitted or top-dose-only effect, or another doubt; inactive means no such curve, though single readings can be large or run the other way. A potency beside an inconclusive call is a rough fit, not a confirmed value.
# Test: Primary qHTS for delayed death inhibitors of the malarial parasite plastid, 96 hour incubation
# Conditions: P. falciparum luciferase reporter growth; series mostly up to 28.7 µM; activity change, negative = inhibition: at the top concentration
# Outline: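 Plates of compound plus infected erythrocytes (2% hematocrit, 0.05% parasitemia final) incubate 96 hours, 37 C, 5% CO2. Detection reagent added; reduced luminescence from the parasites' luciferase reporter flags inhibition.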
# On the % scale 0 is the no-effect control and ±100 the full control effect; potency means the concentration at half of the fitted maximal effect.
Compound,"activity change, negative = inhibition",Potency
Cc1ccc(C)c(OCC(=O)OCC(=O)Nc2c(C)nn(-c3ccccc3)c2C)c1,inactive: 14.6%,
O=C(NC1C(=O)NNC1c1ccccc1)c1ccccc1 (centres undefined),inactive: 48.1%,
Cc1cc(OCc2nnc(SC(C)C(=O)O)n2Cc2ccccc2)ccc1Cl (centres undefined),,"inconclusive: 11.7 µM [inhibitor, partial curve, poor fit]"
N#Cc1cc2c(nc1SCC(O)CS(=O)(=O)Cc1ccc(Cl)cc1)CCCC2 (centres undefined),,"inconclusive: 9.28 µM [inhibitor, single point]"
CC1(C)Cc2c(cnn2-c2ccc(F)cc2)C(NC(=O)c2ccc(=O)oc2)C1 (centres undefined),,"inconclusive: 18.5 µM [inhibitor, single point]"
COc1ccccc1NC(=O)c1ccc(NC(=O)CNC(=O)c2ccc(OC)c(OC)c2)cc1,,"inconclusive: 14.7 µM [inhibitor, single point]"
Cc1cccc(N2CCN(C(=O)C3CCCCC3)CC2)c1C,,"inconclusive: 13.1 µM [inhibitor, single point]"
CC(=O)c1ccc(NC(=O)Cn2cnc(S(=O)(=O)N3CCOCC3)c2)cc1,,"inconclusive: 18.5 µM [inhibitor, single point]"
Cc1cccc(OCC(=O)Nc2cc(C)c(C)cc2O)c1,inactive: -19.4%,
CCCNC(=O)c1ccc2c(=O)c(O)c(-c3cccc(Br)c3)[nH]c2c1,,"inconclusive: 18.5 µM [inhibitor, single point]"
O=C(CCc1ccc(S(=O)(=O)NC2CCCCC2)cc1)NCc1ccccc1,,"inconclusive: 9.28 µM [inhibitor, partial curve, poor fit]"
CCOc1ccc(NS(=O)(=O)c2ccc(NS(=O)(=O)c3cccs3)cc2)cc1,inactive: 21.6%,
Cc1cccc(N2CCN(C(=O)CCCn3c(=O)[nH]c4ccsc4c3=O)CC2C)c1 (centres undefined),inactive: -10.2%,
Cc1onc(-c2c(Cl)cccc2Cl)c1/C(N)=N/OC(=O)C(C)(C)C,,active: 8.28 µM
O=C(Nc1cc(S(=O)(=O)N2CCCCC2)ccc1N1CCOCC1)c1ccc(C(F)(F)F)cc1,,active: 13.1 µM
CCOc1cc(S(=O)(=O)NCCc2cccc(C)c2)c(OCC)cc1-n1cnnn1,,active: 6.57 µM
Cc1ccc(C)c(N2C(=O)CC(Cc3ccccc3)C2=O)c1 (centres undefined),,active: 14.7 µM
O=C(NCC(=O)N(CC1CCCO1)C(C(=O)NC1CCCC1)c1cccnc1)c1ccco1 (centres undefined),,"inconclusive: 18.5 µM [inhibitor, single point]"
CCC(C(=O)Nc1ccsc1C(=O)OC)c1ccccc1 (centres undefined),inactive: -28.6%,
Cc1ccc(NC(=O)C2CCN(S(=O)(=O)c3cnc[nH]3)CC2)nc1,,"inconclusive: 18.5 µM [inhibitor, single point]"
Cc1c(C(=O)N2CCC(C)CC2)cccc1[N+](=O)[O-],,"inconclusive: 4.15 µM [inhibitor, partial curve, poor fit]"
[O-]/C(=C(\C(=S)NCc1ccco1)[n+]1ccccc1)c1ccccc1Br,,"inconclusive: 0.0928 µM [inhibitor, full curve, poor fit]"
COCCOc1cc(Nc2nnc(C(F)(F)F)s2)c(Cl)cc1Cl,,"inconclusive: 10.4 µM [inhibitor, partial curve, poor fit]"

Compound,"activity change, negative = inhibition",Potency
COCCCNC(=O)/C(C#N)=C/c1c(N2CCN(C)CC2)nc2ccccn2c1=O,inactive: 16%,
COc1ccccc1CCNC(=O)CSc1nnc2ccc(-c3ccncc3)nn12,,"inconclusive: 6.57 µM [inhibitor, partial curve, poor fit]"
CN(C)S(=O)(=O)c1cccc(NC(=O)c2cc(=O)[nH]c(=O)[nH]2)c1,inactive: 36.5%,
COc1ccc(NC(=S)N(Cc2ccc(C)cc2)Cc2ccccn2)cc1,,"inconclusive: 13.1 µM [inhibitor, partial curve, poor fit]"
CCn1c2ccc(F)cc2c2nnc(SCCN3CCOCC3)nc21,,"inconclusive: 11.7 µM [inhibitor, single point]"
O=C(O)c1cccc(NC(=O)c2ccc(Cl)c(S(=O)(=O)N3CCCCCC3)c2)c1,,"inconclusive: 11.7 µM [inhibitor, single point]"
Cc1ccsc1C(=O)N(Cc1nnc(-c2ccccc2Cl)o1)C1CC1,,"inconclusive: 18.5 µM [inhibitor, single point]"
COc1ccc(C(=O)CC(=O)Nc2ccc([N+](=O)[O-])cc2)cc1,,"inconclusive: 0.37 µM [inhibitor, partial curve, poor fit]"
C=CCNC(=O)c1onc(CSc2ccc(F)cc2)c1C(=O)NCCOC,inactive: 57.9%,
Cc1cc(C(=O)CSc2nnc(-c3ccc4c(c3)OCO4)o2)c(C)n1-c1ccc(F)cc1,,"inconclusive: 18.5 µM [inhibitor, single point]"
CC(C)N(c1ccccc1)c1ccc(NC(=O)CCl)cc1,,active: 10.4 µM
Cc1nn2c([nH]c(=O)c3ccccc32)c1C=O,,active: 11.7 µM
O=C(Nc1ccc2c(c1)OCO2)C1CCN(c2ccc(S(=O)(=O)N3CCOCC3)cc2)CC1,,"inconclusive: 1.04 µM [inhibitor, full curve, poor fit]"
CCOc1ccccc1/C=N/NC(=O)C[n+]1ccccc1,,"inconclusive: 2.33 µM [inhibitor, single point]"
CC1CCCC(NC(=O)C2CCN(S(=O)(=O)N3CCCCCC3)CC2)C1C (centres undefined),,"inconclusive: 18.5 µM [inhibitor, single point]"
CN1C(=O)COc2c(C(=O)NC3CN4CCC3CC4)cc(Cl)cc21 (centres undefined),,active: 4.78 µM
COc1ccc(-c2ccc(C(=O)O)c(=O)[nH]2)cc1,inactive: 69.8%,
CCC(Oc1ccc(C)c(C)c1)C(=O)O (centres undefined),,"inconclusive: 6.57 µM [inhibitor, partial curve, poor fit]"
C=Cn1c(C(=O)O)cc(CC)c1-c1ccccc1,,active: 1.47 µM
C[C@H]1C=C(C(=O)NCc2ccccc2)O[C@@H](OCc2ccc(CO)cc2)C1,,"inconclusive: 4.15 µM [inhibitor, single point]"
Cc1cnc(C(=O)Nc2ccccc2-c2ccc(C)o2)cn1,,"inconclusive: 18.5 µM [inhibitor, single point]"
Cc1cc(Nc2ccc(Br)cc2)n2nc(C)nc2n1,,"inconclusive: 18.5 µM [inhibitor, single point]"
O=[N+]([O-])c1cccc(S(=O)(=O)Nc2cccc(-c3ccc(N4CCOCC4)nn3)c2)c1,,"inconclusive: 6.57 µM [inhibitor, partial curve]"

# 2 of the compounds above, as tab-separated lines.
Compound	activity change, negative = inhibition	Potency
CCC(C(=O)Nc1ccsc1C(=O)OC)c1ccccc1 (centres undefined)	inactive: -28.6%	
O=[N+]([O-])c1cccc(S(=O)(=O)Nc2cccc(-c3ccc(N4CCOCC4)nn3)c2)c1		inconclusive: 6.57 µM [inhibitor, partial curve]

# The list goes on:

Compound,"activity change, negative = inhibition",Potency
CCOC(=O)C(C)n1cnc2c(nnn2-c2ccc(C)cc2)c1=O (centres undefined),,active: 7.38 µM
COc1ccc(/C=N/NC(=O)c2ccoc2C)cc1CN1CCN(c2ccc(F)cc2)CC1,,"inconclusive: 2.94 µM [inhibitor, full curve, poor fit]"
CC(=O)N[C@@H](Cc1ccc(O)cc1)C(=O)O,,"inconclusive: 21.3 µM [inhibitor, partial curve, poor fit]"
Cc1ccc(S(=O)(=O)N[C@@H](CCCCN)C(=O)CCl)cc1,,active: 12 µM
CC(C)(CC(=O)O)CC(=O)Nc1ccccc1Oc1ccccc1,inactive: -7.83%,
CCCCCCCCCC(=O)Nc1cccnc1,inactive: 30.8%,
CCOC(=O)c1ccc(N2Cc3ccccc3C2)cc1O,inactive: 2.22%,
Cc1cccc(NC(=O)/C(=C\c2cccs2)NC(=O)c2ccccc2)c1,inactive: 239%,
CCOC(=O)C1=C(C)OC(N)=C(C#N)C1c1ccc(C)s1 (centres undefined),,"inconclusive: 11.7 µM [inhibitor, single point]"
O=C(Nc1ccc(Cc2ccncc2)cc1)C1CCC(N2C(=O)C3C4C=CC(C4)C3C2=O)CC1 (centres undefined),,active: 11.7 µM
Cc1ccc(C(=O)CSc2nc(O)cc(=O)[nH]2)cc1C,,"inconclusive: 9.28 µM [inhibitor, partial curve, poor fit]"
C#CCOCCOCCOCCNc1nc(N2CCN(C(=O)[C@H]([C@@H](C)CC)n3cc(CCCCN)nn3)CC2)nc(N2CCN(C(=O)[C@H]([C@@H](C)CC)n3cc(CCCN=C(N)N)nn3)CC2)n1,,active: 7.38 µM
CCNC(=S)N/N=C/c1sccc1C,,"inconclusive: 4.15 µM [inhibitor, single point]"
O=C(CN1C(=O)CN=C(c2ccccc2)c2ccccc21)NCc1ccco1,,"inconclusive: 4.65 µM [inhibitor, partial curve]"
COc1ccc(C2/C=C\CN(C(=O)Oc3ccc(C(F)(F)F)cc3)CC(=O)N2Cc2ccc(F)cc2)cc1 (centres undefined),,"inconclusive: 16.5 µM [inhibitor, single point]"
COc1ccc(C2/C=C\CN(C(=O)c3ccccc3)CC(=O)N2Cc2ccc(F)cc2)cc1 (centres undefined),,"inconclusive: 9.28 µM [inhibitor, single point]"
CN(C)/C=C(\C#N)C(=O)c1cccnc1Oc1ccc(F)cc1F,,"inconclusive: 18.5 µM [inhibitor, single point]"
N#Cc1ccsc1NC(=O)COC(=O)c1cc2ccccc2cc1O,inactive: 42.5%,
C/C(=N\NC(=O)C1(C)CC1(Br)Br)c1ccc(NC(=O)C2CCC2)cc1 (centres undefined),,active: 5.22 µM
Cc1nc(N)nc(OCC(F)(F)C(F)F)c1Br,,"inconclusive: 0.0738 µM [inhibitor, full curve, poor fit]"
Cc1ccccc1-c1nc(CS(=O)(=O)CC(=O)N2CCOCC2)c(C)o1,,"inconclusive: 1.31 µM [inhibitor, partial curve, poor fit]"
CN(Cc1ccccn1)C(=O)C1CCC(=O)N(Cc2cccc(C(F)(F)F)c2)C1 (centres undefined),,"inconclusive: 18.5 µM [inhibitor, single point]"
CCc1ccc(S(=O)(=O)NCC2(N3CCOCC3)CCCCC2)cc1,,"inconclusive: 5.22 µM [inhibitor, partial curve, poor fit]"
